Reference: paper PMC12224964
No constants are given. Whether binding was seen depends on the method and setting. Binding seen in cells or lysates may run through a third protein. A yes stands for co-enrichment or nearness to the bait. Other partners may have been found. Each block holds one molecule with its values, some of them ahead of it.

Protein sequences, listed by entry. Tags and fused reporters are not part of them. Residues count along the entry.
UniProt Q8IY31: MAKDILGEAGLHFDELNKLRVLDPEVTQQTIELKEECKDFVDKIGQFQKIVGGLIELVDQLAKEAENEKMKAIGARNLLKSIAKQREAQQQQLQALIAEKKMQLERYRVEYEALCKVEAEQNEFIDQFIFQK
UniProt P05161, residues 1-157: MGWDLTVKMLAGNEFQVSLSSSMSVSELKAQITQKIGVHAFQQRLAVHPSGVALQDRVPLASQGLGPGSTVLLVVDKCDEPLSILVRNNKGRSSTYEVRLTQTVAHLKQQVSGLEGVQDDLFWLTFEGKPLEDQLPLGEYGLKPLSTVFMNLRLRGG

Target: T1, vacuolar protein sorting 41 homolog (VPS41), endogenous (human (endogenous in HaCaT)) (UniProt P49754)
T1 sequence: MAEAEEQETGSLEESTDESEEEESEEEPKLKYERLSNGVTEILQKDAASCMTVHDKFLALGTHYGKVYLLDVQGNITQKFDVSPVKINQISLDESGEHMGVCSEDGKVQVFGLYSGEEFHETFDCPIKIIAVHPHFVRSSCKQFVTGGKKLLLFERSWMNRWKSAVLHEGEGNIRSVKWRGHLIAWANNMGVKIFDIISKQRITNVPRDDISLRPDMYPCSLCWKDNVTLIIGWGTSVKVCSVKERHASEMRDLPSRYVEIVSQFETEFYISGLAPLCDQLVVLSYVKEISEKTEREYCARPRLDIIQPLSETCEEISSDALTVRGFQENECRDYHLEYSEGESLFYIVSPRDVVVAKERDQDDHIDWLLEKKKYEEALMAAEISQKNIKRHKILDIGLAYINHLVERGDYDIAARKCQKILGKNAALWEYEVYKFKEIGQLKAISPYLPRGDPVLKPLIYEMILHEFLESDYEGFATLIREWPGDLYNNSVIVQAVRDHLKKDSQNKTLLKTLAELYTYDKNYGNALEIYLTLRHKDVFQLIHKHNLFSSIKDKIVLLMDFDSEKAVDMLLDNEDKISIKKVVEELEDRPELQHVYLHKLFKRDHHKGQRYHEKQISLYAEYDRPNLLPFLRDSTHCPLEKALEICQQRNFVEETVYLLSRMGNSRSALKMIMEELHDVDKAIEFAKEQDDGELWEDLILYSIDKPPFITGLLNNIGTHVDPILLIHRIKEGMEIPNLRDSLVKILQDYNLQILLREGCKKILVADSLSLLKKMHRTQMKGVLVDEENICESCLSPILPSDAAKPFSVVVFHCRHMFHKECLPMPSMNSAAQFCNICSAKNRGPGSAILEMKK
Assay: affinity purification with mass spectrometry; interacting proteins of endogenous VPS41 identified by mass spectrometry; hits intersected with the proteins differentially expressed on VPS41 overexpression in HaCaT cells after 10 Gy

binding: binds
Molecule: IFT20 (from UniProt Q8IY31 1-132)

binding: binds
Molecule: ISG15 (from UniProt P05161 1-157)

binding: binds
B1: metastasis suppressor kangai-1 (KAI1), endogenous (protein, UniProt P27701 1-267)
chain: MGSACIKVTKYFLFLFNLIFFILGAVILGFGVWILADKSSFISVLQTSSSSLRMGAYVFIGVGAVTMLMGFLGCIGAVNEVRCLLGLYFAFLLLILIAQVTAGALFYFNMGKLKQEMGGIVTELIRDYNSSREDSLQDAWDYVQAQVKCCGWVSFYNWTDNAELMNRPEVTYPCSCEVKGEEDNSLSVRKGFCEAPGNRTQSGNHPEDWPVYQEGCMEKVQAWLQENLGIILGVGVGVAIIELLGMVLSICLCRHVHSEDYSKVPKY
